According to patent publication US20120034613A1, “Apparatus and Method for Testing Relationships Between Gene Expression and Physical Appearance of Skin” (NSE Products, Inc., priority 2010, published 2012):
This continues a long series; more values of the same kind are listed elsewhere.

Test system: EpidermFT™ Skin Model (EFT-400) full thickness skin cultures
Experiment: Affymetrix GeneChip HG U133 Plus 2.0 microarray global gene expression, agent-exposed vs untreated skin cultures
Type: cell-based, human
Settings: Salicin 0.5%, 24 hr
[1] = 44790_s_at C13orf18 /// LOC728970
[2] = 218280_x_at HIST2H2AA3 /// HIST2H2AA4

OCc1ccccc1O[C@@H]1O[C@H](CO)[C@@H](O)[C@H](O)[C@H]1O [Salicin, 2-(Hydroxymethyl)phenyl β-D-glucospyranoside]
Direction (37226_at BNIP1): up
Fold change (37226_at BNIP1): 2.163
Direction (40560_at TBX2): up
Fold change (40560_at TBX2): 2.044
Direction [1]: up
Fold change [1]: 2.258
Direction (200755_s_at CALU): up
Fold change (200755_s_at CALU): 2.052
Direction (200790_at ODC1): up
Fold change (200790_at ODC1): 2.276
Direction (201150_s_at TIMP3): up
Fold change (201150_s_at TIMP3): 2.058
Direction (201289_at CYR61): up
Fold change (201289_at CYR61): 2.214
Direction (201531_at ZFP36): up
Fold change (201531_at ZFP36): 2.225
Direction (201772_at AZIN1): up
Fold change (201772_at AZIN1): 2.049
Direction (202214_s_at CUL4B): up
Fold change (202214_s_at CUL4B): 2.058
Direction (202375_at SEC24D): up
Fold change (202375_at SEC24D): 2.296
Direction (202543_s_at GMFB): up
Fold change (202543_s_at GMFB): 2.213
Direction (202721_s_at GFPT1): up
Fold change (202721_s_at GFPT1): 2.266
Direction (202722_s_at GFPT1): up
Fold change (202722_s_at GFPT1): 2.26
Direction (202784_s_at NNT): up
Fold change (202784_s_at NNT): 2.054
Direction (202820_at AHR): up
Fold change (202820_at AHR): 2.272
Direction (202888_s_at ANPEP): up
Fold change (202888_s_at ANPEP): 2.201
Direction (203294_s_at LMAN1): up
Fold change (203294_s_at LMAN1): 2.05
Direction (203424_s_at IGFBP5): up
Fold change (203424_s_at IGFBP5): 2.27
Direction (203425_s_at IGFBP5): up
Fold change (203425_s_at IGFBP5): 2.176
Direction (203475_at CYP19A1): up
Fold change (203475_at CYP19A1): 2.29
Direction (203498_at RCAN2): up
Fold change (203498_at RCAN2): 2.281
Direction (203574_at NFIL3): up
Fold change (203574_at NFIL3): 2.169
Direction (203810_at DNAJB4): up
Fold change (203810_at DNAJB4): 2.053
Direction (203837_at MAP3K5): up
Fold change (203837_at MAP3K5): 2.262
Direction (203857_s_at PDIA5): up
Fold change (203857_s_at PDIA5): 2.204
Direction (203927_at NFKBIE): up
Fold change (203927_at NFKBIE): 2.057
Direction (203980_at FABP4): up
Fold change (203980_at FABP4): 2.251
Direction (204089_x_at MAP3K4): up
Fold change (204089_x_at MAP3K4): 2.283
Direction (204151_x_at AKR1C1): up
Fold change (204151_x_at AKR1C1): 2.205
Direction (204556_s_at DZIP1): up
Fold change (204556_s_at DZIP1): 2.173
Direction (204595_s_at STC1): up
Fold change (204595_s_at STC1): 2.234
Direction (204597_x_at STC1): up
Fold change (204597_x_at STC1): 2.234
Direction (204720_s_at DNAJC6): up
Fold change (204720_s_at DNAJC6): 2.275
Direction (204984_at GPC4): up
Fold change (204984_at GPC4): 2.289
Direction (205138_s_at UST): up
Fold change (205138_s_at UST): 2.241
Direction (205290_s_at BMP2): up
Fold change (205290_s_at BMP2): 2.065
Direction (205495_s_at GNLY): up
Fold change (205495_s_at GNLY): 2.202
Direction (205659_at HDAC9): up
Fold change (205659_at HDAC9): 2.071
Direction (205991_s_at PRRX1): up
Fold change (205991_s_at PRRX1): 2.165
Direction (206249_at MAP3K13): up
Fold change (206249_at MAP3K13): 2.252
Direction (206445_s_at PRMT1): up
Fold change (206445_s_at PRMT1): 2.175
Direction (207345_at FST): up
Fold change (207345_at FST): 2.17
Direction (207829_s_at BNIP1): up
Fold change (207829_s_at BNIP1): 2.164
Direction (208510_s_at PPARG): up
Fold change (208510_s_at PPARG): 2.182
Direction (209204_at LMO4): up
Fold change (209204_at LMO4): 2.247
Direction (209277_at TFPI2): up
Fold change (209277_at TFPI2): 2.243
Direction (209324_s_at RGS16): up
Fold change (209324_s_at RGS16): 2.064
Direction (209545_s_at RIPK2): up
Fold change (209545_s_at RIPK2): 2.253
Direction (209699_x_at AKR1C2): up
Fold change (209699_x_at AKR1C2): 2.064
Direction (209708_at MOXD1): up
Fold change (209708_at MOXD1): 2.205
Direction (209781_s_at KHDRBS3): up
Fold change (209781_s_at KHDRBS3): 2.199
Direction (209850_s_at CDC42EP2): up
Fold change (209850_s_at CDC42EP2): 2.161
Direction (210191_s_at PHTF1): up
Fold change (210191_s_at PHTF1): 2.2
Direction (210198_s_at PLP1): up
Fold change (210198_s_at PLP1): 2.052
Direction (210243_s_at B4GALT3): up
Fold change (210243_s_at B4GALT3): 2.049
Direction (210257_x_at CUL4B): up
Fold change (210257_x_at CUL4B): 2.231
Direction (210275_s_at ZFAND5): up
Fold change (210275_s_at ZFAND5): 2.201
Direction (210350_x_at ING1): up
Fold change (210350_x_at ING1): 2.174
Direction (210510_s_at NRP1): up
Fold change (210510_s_at NRP1): 2.238
Direction (210845_s_at PLAUR): up
Fold change (210845_s_at PLAUR): 2.249
Direction (210875_s_at ZEB1): up
Fold change (210875_s_at ZEB1): 2.233
Direction (210896_s_at ASPH): up
Fold change (210896_s_at ASPH): 2.225
Direction (211952_at IPO5): up
Fold change (211952_at IPO5): 2.044
Direction (212110_at SLC39A14): up
Fold change (212110_at SLC39A14): 2.046
Direction (212120_at RHOQ): up
Fold change (212120_at RHOQ): 2.061
Direction (212454_x_at HNRPDL): up
Fold change (212454_x_at HNRPDL): 2.054
Direction (212585_at OSBPL8): up
Fold change (212585_at OSBPL8): 2.25
Direction (212915_at PDZRN3): up
Fold change (212915_at PDZRN3): 2.236
Direction (213029_at NFIB): up
Fold change (213029_at NFIB): 2.235
Direction (213036_x_at ATP2A3): up
Fold change (213036_x_at ATP2A3): 2.192
Direction (213113_s_at SLC43A3): up
Fold change (213113_s_at SLC43A3): 2.211
Direction (213159_at PCNX): up
Fold change (213159_at PCNX): 2.265
Direction (213173_at PCNX): up
Fold change (213173_at PCNX): 2.071
Direction (213309_at PLCL2): up
Fold change (213309_at PLCL2): 2.241
Direction (213338_at TMEM158): up
Fold change (213338_at TMEM158): 2.205
Direction (213417_at TBX2): up
Fold change (213417_at TBX2): 2.229
Direction (213425_at WNT5A): up
Fold change (213425_at WNT5A): 2.279
Direction (213836_s_at WIPI1): up
Fold change (213836_s_at WIPI1): 2.256
Direction (213988_s_at SAT1): up
Fold change (213988_s_at SAT1): 2.174
Direction (214061_at WDR67): up
Fold change (214061_at WDR67): 2.176
Direction (214657_s_at NCRNA00084): up
Fold change (214657_s_at NCRNA00084): 2.174
Direction (215058_at DENND5B): up
Fold change (215058_at DENND5B): 2.169
Direction (216218_s_at PLCL2): up
Fold change (216218_s_at PLCL2): 2.201
Direction (217741_s_at ZFAND5): up
Fold change (217741_s_at ZFAND5): 2.16
Direction (218193_s_at GOLT1B): up
Fold change (218193_s_at GOLT1B): 2.18
Direction [2]: up
Fold change [2]: 2.275
Direction (218401_s_at ZNF281): up
Fold change (218401_s_at ZNF281): 2.218
Direction (218513_at C4orf43): up
Fold change (218513_at C4orf43): 2.047
Direction (218541_s_at C8orf4): up
